Results are given in words; binding and its absence hold for the method and conditions named. Binding seen in cells or lysates may run through a third protein. These calls come from enrichment with a bait or labelling near it, and not all partners need be listed.

Protein sequences, listed by entry. Tags and fused reporters are not part of them.
UniProt P51784: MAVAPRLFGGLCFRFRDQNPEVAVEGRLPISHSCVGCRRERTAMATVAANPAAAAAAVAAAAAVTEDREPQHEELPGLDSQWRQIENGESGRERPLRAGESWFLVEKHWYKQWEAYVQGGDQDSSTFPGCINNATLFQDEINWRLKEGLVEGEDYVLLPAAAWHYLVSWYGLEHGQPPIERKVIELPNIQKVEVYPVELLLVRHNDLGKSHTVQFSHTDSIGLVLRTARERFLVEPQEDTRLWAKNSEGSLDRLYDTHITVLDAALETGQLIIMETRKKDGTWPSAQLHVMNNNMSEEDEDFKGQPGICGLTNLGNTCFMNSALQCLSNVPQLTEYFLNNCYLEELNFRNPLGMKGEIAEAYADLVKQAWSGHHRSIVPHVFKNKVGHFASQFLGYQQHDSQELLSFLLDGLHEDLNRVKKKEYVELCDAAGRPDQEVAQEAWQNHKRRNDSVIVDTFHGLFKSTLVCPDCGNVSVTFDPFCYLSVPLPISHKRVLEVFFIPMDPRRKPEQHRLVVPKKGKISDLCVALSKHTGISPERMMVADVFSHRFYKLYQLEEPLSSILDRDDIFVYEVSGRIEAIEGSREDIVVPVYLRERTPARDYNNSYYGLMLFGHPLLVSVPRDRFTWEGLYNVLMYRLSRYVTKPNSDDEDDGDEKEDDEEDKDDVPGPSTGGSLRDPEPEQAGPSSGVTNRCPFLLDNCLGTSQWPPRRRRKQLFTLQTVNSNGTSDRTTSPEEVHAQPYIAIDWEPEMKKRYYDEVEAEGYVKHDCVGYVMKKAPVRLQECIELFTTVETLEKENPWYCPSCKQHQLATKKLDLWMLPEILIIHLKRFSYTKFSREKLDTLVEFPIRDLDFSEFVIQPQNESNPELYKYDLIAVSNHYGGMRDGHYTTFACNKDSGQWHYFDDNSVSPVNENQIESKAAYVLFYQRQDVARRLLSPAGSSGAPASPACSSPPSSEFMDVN

The text below walks through data of publication PMC11840727.

The experiment concerns the target T1, DLGAP5 overexpressed in 293T cells (bait of the IP with LC-MS/MS) (UniProt Q15398).
T1 sequence: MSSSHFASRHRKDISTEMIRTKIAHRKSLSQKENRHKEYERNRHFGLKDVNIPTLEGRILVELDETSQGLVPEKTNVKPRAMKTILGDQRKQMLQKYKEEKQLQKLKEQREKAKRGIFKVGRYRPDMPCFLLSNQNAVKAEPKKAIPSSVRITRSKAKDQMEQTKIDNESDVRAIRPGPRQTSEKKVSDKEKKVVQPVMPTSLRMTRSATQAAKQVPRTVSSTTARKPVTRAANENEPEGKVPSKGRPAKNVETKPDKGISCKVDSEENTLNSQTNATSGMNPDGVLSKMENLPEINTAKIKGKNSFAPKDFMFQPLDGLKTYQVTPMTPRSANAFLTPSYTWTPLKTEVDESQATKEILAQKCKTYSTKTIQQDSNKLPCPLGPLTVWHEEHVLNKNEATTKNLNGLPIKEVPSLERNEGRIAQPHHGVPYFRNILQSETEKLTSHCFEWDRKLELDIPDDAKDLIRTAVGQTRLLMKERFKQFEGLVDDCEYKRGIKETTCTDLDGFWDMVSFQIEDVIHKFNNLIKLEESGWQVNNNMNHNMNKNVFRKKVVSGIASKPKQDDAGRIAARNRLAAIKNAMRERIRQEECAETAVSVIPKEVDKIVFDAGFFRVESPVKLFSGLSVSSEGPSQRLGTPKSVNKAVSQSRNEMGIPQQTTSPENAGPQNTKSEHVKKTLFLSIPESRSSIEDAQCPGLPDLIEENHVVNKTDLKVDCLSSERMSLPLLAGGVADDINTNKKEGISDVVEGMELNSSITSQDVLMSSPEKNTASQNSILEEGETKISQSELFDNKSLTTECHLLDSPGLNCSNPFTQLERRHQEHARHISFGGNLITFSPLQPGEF
Kind of experiment: affinity purification with mass spectrometry; IP of DLGAP5 overexpressed in 293T cells and subsequent LC-MS/MS.

Consider “USP11 (found by LC-MS/MS in the IP of DLGAP5) (from UniProt P51784 1-963) (enzyme)”, for which the binding result is listed as “binds”.
